# In paper doi:10.1101/2020.01.07.897199:
# By UniProt entry, the sequences of proteins in these tests, tags left out.
# UniProt P46938: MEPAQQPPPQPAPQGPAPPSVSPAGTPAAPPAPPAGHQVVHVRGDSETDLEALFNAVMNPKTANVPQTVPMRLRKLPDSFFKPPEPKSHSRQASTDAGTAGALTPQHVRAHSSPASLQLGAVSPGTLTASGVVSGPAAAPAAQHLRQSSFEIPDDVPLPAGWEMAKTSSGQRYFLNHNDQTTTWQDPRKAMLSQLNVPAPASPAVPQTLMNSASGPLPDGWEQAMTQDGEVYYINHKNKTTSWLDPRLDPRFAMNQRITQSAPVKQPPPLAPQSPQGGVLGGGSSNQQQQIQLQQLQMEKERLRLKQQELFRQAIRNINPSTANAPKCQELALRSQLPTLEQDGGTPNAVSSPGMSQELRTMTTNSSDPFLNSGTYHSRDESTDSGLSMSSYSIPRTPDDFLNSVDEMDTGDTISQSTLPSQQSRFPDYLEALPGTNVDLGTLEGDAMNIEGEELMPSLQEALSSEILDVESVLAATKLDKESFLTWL
# UniProt Q921T2: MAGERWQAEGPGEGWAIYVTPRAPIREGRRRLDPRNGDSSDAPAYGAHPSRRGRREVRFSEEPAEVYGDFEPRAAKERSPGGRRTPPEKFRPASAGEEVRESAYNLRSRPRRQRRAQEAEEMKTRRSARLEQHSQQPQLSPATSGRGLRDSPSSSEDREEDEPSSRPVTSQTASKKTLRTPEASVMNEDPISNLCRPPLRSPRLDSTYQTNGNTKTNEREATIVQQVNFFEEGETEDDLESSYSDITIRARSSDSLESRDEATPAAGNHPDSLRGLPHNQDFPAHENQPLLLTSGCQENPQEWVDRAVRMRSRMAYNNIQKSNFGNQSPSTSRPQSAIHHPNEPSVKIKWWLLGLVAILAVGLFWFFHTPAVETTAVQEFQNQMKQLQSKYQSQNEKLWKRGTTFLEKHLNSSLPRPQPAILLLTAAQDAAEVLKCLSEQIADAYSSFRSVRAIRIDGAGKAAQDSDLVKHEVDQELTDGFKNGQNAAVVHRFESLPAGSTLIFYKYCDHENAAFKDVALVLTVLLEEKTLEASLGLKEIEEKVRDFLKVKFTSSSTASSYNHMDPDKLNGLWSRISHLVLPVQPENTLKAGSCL
# UniProt Q4U4S6: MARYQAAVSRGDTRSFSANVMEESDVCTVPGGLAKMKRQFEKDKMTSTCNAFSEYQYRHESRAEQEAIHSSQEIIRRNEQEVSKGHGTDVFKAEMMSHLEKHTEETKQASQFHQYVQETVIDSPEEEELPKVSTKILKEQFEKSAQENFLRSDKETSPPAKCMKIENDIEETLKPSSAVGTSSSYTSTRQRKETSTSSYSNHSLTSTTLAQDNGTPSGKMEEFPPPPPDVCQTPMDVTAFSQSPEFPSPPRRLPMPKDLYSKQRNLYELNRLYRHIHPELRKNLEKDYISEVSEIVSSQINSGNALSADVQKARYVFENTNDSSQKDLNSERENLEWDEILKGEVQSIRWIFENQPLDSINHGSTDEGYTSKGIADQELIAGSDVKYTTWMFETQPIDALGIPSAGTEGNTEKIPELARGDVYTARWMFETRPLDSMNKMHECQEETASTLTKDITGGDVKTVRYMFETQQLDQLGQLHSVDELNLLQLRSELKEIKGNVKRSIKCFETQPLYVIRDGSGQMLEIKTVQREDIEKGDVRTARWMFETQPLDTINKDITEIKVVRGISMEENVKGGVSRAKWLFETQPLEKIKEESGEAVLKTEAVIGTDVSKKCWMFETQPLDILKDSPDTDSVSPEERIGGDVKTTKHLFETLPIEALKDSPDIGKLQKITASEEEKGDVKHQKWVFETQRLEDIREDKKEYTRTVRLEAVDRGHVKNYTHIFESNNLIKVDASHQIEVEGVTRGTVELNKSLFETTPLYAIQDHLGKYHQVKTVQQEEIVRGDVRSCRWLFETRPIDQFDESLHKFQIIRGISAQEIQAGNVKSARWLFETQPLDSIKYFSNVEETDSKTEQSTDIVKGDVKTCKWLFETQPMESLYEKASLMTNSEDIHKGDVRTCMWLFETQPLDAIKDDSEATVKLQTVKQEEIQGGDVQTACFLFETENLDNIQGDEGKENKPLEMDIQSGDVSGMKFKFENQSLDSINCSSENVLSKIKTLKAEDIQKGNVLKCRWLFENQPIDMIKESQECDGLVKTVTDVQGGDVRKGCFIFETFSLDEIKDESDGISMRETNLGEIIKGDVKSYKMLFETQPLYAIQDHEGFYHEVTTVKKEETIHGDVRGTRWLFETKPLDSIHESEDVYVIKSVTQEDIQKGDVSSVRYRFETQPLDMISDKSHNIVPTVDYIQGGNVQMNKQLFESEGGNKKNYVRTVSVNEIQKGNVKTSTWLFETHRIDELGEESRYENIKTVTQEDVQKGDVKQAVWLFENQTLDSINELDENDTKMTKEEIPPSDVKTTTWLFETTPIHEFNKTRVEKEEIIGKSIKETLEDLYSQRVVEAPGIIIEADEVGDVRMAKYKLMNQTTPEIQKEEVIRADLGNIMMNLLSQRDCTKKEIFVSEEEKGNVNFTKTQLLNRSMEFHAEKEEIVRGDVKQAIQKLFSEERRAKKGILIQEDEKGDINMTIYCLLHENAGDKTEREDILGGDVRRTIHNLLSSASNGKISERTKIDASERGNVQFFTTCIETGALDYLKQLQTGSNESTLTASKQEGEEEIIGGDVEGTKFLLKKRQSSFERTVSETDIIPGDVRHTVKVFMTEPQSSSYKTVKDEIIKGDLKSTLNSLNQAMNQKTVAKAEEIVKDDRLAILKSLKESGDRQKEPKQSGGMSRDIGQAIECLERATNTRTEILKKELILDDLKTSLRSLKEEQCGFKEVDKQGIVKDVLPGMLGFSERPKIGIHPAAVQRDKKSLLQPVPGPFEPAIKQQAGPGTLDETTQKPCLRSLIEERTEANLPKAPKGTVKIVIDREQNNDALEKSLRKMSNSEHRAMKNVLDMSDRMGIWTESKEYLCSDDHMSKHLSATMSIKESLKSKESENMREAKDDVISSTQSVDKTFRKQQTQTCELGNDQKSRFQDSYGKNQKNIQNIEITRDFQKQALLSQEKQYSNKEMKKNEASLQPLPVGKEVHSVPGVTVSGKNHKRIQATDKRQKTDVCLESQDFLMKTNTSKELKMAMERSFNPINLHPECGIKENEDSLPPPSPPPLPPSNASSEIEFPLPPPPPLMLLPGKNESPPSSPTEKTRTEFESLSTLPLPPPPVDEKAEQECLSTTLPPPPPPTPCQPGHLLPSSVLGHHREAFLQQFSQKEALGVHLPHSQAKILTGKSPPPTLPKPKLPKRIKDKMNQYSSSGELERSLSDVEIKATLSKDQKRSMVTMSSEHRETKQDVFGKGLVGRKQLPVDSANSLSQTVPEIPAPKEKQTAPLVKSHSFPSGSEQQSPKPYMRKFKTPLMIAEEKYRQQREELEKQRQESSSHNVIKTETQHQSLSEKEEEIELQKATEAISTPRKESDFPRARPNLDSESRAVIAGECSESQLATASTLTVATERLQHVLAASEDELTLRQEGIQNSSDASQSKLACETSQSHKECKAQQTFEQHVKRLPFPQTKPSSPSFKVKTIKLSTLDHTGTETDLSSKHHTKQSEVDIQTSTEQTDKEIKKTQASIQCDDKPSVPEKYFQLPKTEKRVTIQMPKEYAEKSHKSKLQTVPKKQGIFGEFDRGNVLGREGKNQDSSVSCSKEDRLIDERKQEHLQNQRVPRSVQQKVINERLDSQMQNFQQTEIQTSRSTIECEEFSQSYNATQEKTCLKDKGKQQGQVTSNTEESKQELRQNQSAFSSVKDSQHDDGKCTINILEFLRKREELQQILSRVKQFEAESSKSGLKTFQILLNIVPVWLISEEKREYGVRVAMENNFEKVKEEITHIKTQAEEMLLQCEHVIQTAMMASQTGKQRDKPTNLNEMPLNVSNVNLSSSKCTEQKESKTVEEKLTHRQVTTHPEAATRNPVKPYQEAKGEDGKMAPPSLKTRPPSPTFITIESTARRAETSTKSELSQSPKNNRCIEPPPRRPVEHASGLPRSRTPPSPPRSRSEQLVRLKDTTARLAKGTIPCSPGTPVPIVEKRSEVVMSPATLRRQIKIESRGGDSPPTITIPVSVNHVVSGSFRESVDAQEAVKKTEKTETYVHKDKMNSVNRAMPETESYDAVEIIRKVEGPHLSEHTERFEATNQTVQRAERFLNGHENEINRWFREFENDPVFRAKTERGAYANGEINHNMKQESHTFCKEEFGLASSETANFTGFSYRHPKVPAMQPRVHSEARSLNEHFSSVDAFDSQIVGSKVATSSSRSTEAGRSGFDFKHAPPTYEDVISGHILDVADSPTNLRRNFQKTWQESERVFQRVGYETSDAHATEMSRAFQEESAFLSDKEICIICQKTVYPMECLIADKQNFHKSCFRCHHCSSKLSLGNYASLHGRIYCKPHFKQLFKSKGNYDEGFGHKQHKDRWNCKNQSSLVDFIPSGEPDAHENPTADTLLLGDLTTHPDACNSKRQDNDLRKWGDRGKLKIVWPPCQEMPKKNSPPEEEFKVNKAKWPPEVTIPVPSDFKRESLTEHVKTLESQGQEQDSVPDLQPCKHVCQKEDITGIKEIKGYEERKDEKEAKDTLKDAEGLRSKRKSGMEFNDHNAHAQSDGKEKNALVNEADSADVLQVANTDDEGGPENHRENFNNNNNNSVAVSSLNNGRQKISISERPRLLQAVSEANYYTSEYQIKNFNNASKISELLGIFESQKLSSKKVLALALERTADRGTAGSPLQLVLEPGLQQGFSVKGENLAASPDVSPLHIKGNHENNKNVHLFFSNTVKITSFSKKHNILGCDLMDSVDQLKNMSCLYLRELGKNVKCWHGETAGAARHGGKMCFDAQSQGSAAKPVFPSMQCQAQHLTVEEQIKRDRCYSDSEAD
# UniProt P35385: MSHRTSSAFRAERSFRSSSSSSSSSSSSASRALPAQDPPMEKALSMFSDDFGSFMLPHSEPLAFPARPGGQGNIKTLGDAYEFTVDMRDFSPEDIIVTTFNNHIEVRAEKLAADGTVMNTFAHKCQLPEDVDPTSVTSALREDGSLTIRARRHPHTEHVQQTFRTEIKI
# No constants are given. Whether binding was seen depends on the method and setting. In cells and extracts the contact can be indirect. Here binding means that the protein was enriched with, or labelled near, the bait; the list need not be complete.
# B1: Sun1 (protein, UniProt Q9D666 1-913)
# chain: MDFSRLHTYTPPQCVPENTGYTYALSSSYSSDALDFETEHKLEPVFDSPRMSRRSLRLVTTASYSSGDSQAIDSHISTSRATPAKGRETRTVKQRRSASKPAFSINHLSGKGLSSSTSHDSSCSLRSATVLRHPVLDESLIREQTKVDHFWGLDDDGDLKGGNKAATQGNGELAAEVASSNGYTCRDCRMLSARTDALTAHSAIHGTTSRVYSRDRTLKPRGVSFYLDRTLWLAKSTSSSFASFIVQLFQVVLMKLNFETYKLKGYESRAYESQSYETKSHESEAHLGHCGRMTAGELSRVDGESLCDDCKGKKHLEIHTATHSQLPQPHRVAGAMGRLCIYTGDLLVQALRRTRAAGWSVAEAVWSVLWLAVSAPGKAASGTFWWLGSGWYQFVTLISWLNVFLLTRCLRNICKVFVLLLPLLLLLGAGVSLWGQGNFFSLLPVLNWTAMQPTQRVDDSKGMHRPGPLPPSPPPKVDHKASQWPQESDMGQKVASLSAQCHNHDERLAELTVLLQKLQIRVDQVDDGREGLSLWVKNVVGQHLQEMGTIEPPDAKTDFMTFHHDHEVRLSNLEDVLRKLTEKSEAIQKELEETKLKAGSRDEEQPLLDRVQHLELELNLLKSQLSDWQHLKTSCEQAGARIQETVQLMFSEDQQGGSLEWLLEKLSSRFVSKDELQVLLHDLELKLLQNITHHITVTGQAPTSEAIVSAVNQAGISGITEAQAHIIVNNALKLYSQDKTGMVDFALESGGGSILSTRCSETYETKTALLSLFGVPLWYFSQSPRVVIQPDIYPGNCWAFKGSQGYLVVRLSMKIYPTTFTMEHIPKTLSPTGNISSAPKDFAVYGLETEYQEEGQPLGRFTYDQEGDSLQMFHTLERPDQAFQIVELRVLSNWGHPEYTCLYRFRVHGEPIQ
# B2: Sun2 (protein, UniProt Q8BJS4 1-731)
# chain: MSRRSQRLTRYSQDDNDGGSSSSGASSVAGSQGTVFKDSPLRTLKRKSSNMKHLSPAPQLGPSSDSHTSYYSESVVRESYIGSPRAVSLARSALLDDHLHSEPYWSGDLRGRRRRGTGGSESSKANGLTAESKASEDFFGSSSGYSSEDDLAGYTDSDQHSSGSRLRSAASRAGSFVWTLVTFPGRLFGLLYWWIGTTWYRLTTAASLLDVFVLTRSRHFSLNLKSFLWFLLLLLLLTGLTYGAWHFYPLGLQTLQPAVVSWWAAKESRKQPEVWESRDASQHFQAEQRVLSRVHSLERRLEALAADFSSNWQKEAIRLERLELRQGAAGHGGGSSLSHEDALSLLEGLVSRREATLKEDLRRDTVAHIQEELATLRAEHHQDSEDLFKKIVQASQESEARVQQLKTEWKSMTQEAFQESSVKELGRLEAQLASLRQELAALTLKQNSVADEVGLLPQKIQAARADVESQFPDWIRQFLLGDRGARSGLLQRDEMHAQLQELENKILTKMAEMQGKSAREAAASLGQILQKEGIVGVTEEQVHRIVKQALQRYSEDRIGMVDYALESGGASVISTRCSETYETKTALLSLFGIPLWYHSQSPRVILQPDVHPGNCWAFQGPQGFAVVRLSARIRPTAVTLEHVPKALSPNSTISSAPKDFAIFGFDEDLQQEGTLLGTFAYDQDGEPIQTFYFQASKMATYQVVELRILTNWGHPEYTCIYRFRVHGEPAH
# Molecular target: YAP (mouse (endogenous in adult mouse heart)) (UniProt P46938)
# Test: affinity purification with mass spectrometry
row,binding,Molecule
1,binds,Tor1aip1 (from UniProt Q921T2 1-595)
2,binds,Nestin (from UniProt Q6P5H2 1-1864)
3,binds,Flnc (from UniProt Q8VHX6 1-2726)
4,binds,Xirp2 (from UniProt Q4U4S6 1-3784)
5,binds,Hspb7 (from UniProt P35385 1-169)
6,binds,B1
7,binds,B2
